PubChem BioAssay AID1508597 – Cure First, 2020
Aim: 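Survival screen with siRNA in ovarian cancer cells derived from patients, with or without rucaparib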 (primary screen). Cell system: human ovarian carcinoma lines grown from tumours: OCI-P5x (papillary serous) and OCI-C5x (clear cell). Reagents: siRNA pool against human genes, 1.25 pmol siRNA per well. Duration: 72 h or 96 h, depending on the cell culture. Conditions: rucaparib 20 µM (about IC30) or vehicle, present until read-out. Read-out: 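Luminescent ATP-based viability assay read 72 or 96 h after transfection, depending on culture, given as normalised percent viability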. Direction: viability, normalised: higher = more viable cells remaining. Call rule: 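a well counts as a hit if its normalised viability is under 80 percent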. Calls: active = viability under 80%; inactive = viability 80% or more.
In all, the deposit lists about 2,100 reagents; below is a random part of them. 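Calls flag viability under 80% in either arm, not effects specific to rucaparib; the reference for percent is not stated.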 Entries without a mark were called inactive. The record does not give: the 100% reference.

| gene | rucaparib or vehicle | cell line | technical replicate | viability, normalised (%) |
| --- | --- | --- | --- | --- |
| L3MBTL3 | Rucaparib | OCI-C5x (clear cell) | 1 | 46.6 (active) |
| L3MBTL3 | Rucaparib | OCI-C5x (clear cell) | 2 | 42 (active) |
| L3MBTL3 | Rucaparib | OCI-C5x (clear cell) | 3 | 47.5 (active) |
| L3MBTL3 | Rucaparib | OCI-P5x (serous) | 1 | 67.1 (active) |
| L3MBTL3 | Rucaparib | OCI-P5x (serous) | 2 | 64.2 (active) |
| L3MBTL3 | Rucaparib | OCI-P5x (serous) | 3 | 73.3 (active) |
| L3MBTL3 | Vehicle | OCI-C5x (clear cell) | 1 | 39.5 (active) |
| L3MBTL3 | Vehicle | OCI-C5x (clear cell) | 2 | 76.2 (active) |
| L3MBTL3 | Vehicle | OCI-C5x (clear cell) | 3 | 39.5 (active) |
| L3MBTL3 | Vehicle | OCI-P5x (serous) | 1 | 58.1 (active) |
| L3MBTL3 | Vehicle | OCI-P5x (serous) | 2 | 68.3 (active) |
| L3MBTL3 | Vehicle | OCI-P5x (serous) | 3 | 73.2 (active) |
| BRD1 | Rucaparib | OCI-C5x (clear cell) | 1 | 48.8 (active) |
| BRD1 | Rucaparib | OCI-C5x (clear cell) | 2 | 32.9 (active) |
| BRD1 | Rucaparib | OCI-C5x (clear cell) | 3 | 33.4 (active) |
| BRD1 | Rucaparib | OCI-P5x (serous) | 1 | 47 (active) |
| BRD1 | Rucaparib | OCI-P5x (serous) | 2 | 65.7 (active) |
| BRD1 | Rucaparib | OCI-P5x (serous) | 3 | 65.6 (active) |
| BRD1 | Vehicle | OCI-C5x (clear cell) | 1 | 37.9 (active) |
| BRD1 | Vehicle | OCI-C5x (clear cell) | 2 | 52.3 (active) |
| BRD1 | Vehicle | OCI-C5x (clear cell) | 3 | 26.6 (active) |
| BRD1 | Vehicle | OCI-P5x (serous) | 1 | 58.1 (active) |
| BRD1 | Vehicle | OCI-P5x (serous) | 2 | 56.1 (active) |
| BRD1 | Vehicle | OCI-P5x (serous) | 3 | 76.2 (active) |
| PGK2 | Rucaparib | OCI-C5x (clear cell) | 1 | 49.2 (active) |
| PGK2 | Rucaparib | OCI-C5x (clear cell) | 2 | 64.5 (active) |
| PGK2 | Rucaparib | OCI-C5x (clear cell) | 3 | 58.2 (active) |
| PGK2 | Rucaparib | OCI-P5x (serous) | 1 | 90.9 |
| PGK2 | Rucaparib | OCI-P5x (serous) | 2 | 99.3 |
| PGK2 | Rucaparib | OCI-P5x (serous) | 3 | 111 |
| PGK2 | Vehicle | OCI-C5x (clear cell) | 1 | 62.6 (active) |
| PGK2 | Vehicle | OCI-C5x (clear cell) | 2 | 75.2 (active) |
| PGK2 | Vehicle | OCI-C5x (clear cell) | 3 | 53.6 (active) |
| PGK2 | Vehicle | OCI-P5x (serous) | 1 | 93.7 |
| PGK2 | Vehicle | OCI-P5x (serous) | 2 | 99.6 |
| PGK2 | Vehicle | OCI-P5x (serous) | 3 | 83.2 |
| FBXO10 | Rucaparib | OCI-C5x (clear cell) | 1 | 48.2 (active) |
| FBXO10 | Rucaparib | OCI-C5x (clear cell) | 2 | 41.8 (active) |
| FBXO10 | Rucaparib | OCI-C5x (clear cell) | 3 | 54.7 (active) |
| FBXO10 | Rucaparib | OCI-P5x (serous) | 1 | 56.8 (active) |
| FBXO10 | Rucaparib | OCI-P5x (serous) | 2 | 57.1 (active) |
| FBXO10 | Rucaparib | OCI-P5x (serous) | 3 | 64.4 (active) |
| FBXO10 | Vehicle | OCI-C5x (clear cell) | 1 | 50.6 (active) |
| FBXO10 | Vehicle | OCI-C5x (clear cell) | 2 | 58.1 (active) |
| FBXO10 | Vehicle | OCI-C5x (clear cell) | 3 | 48.4 (active) |
| FBXO10 | Vehicle | OCI-P5x (serous) | 1 | 70.7 (active) |
| FBXO10 | Vehicle | OCI-P5x (serous) | 2 | 67.7 (active) |
| FBXO10 | Vehicle | OCI-P5x (serous) | 3 | 72.4 (active) |
